This passage reports binding signal results from article PMC7819943, “Rice protein-binding microarrays: a tool to detect cis-acting elements near promoter regions in rice”.

Sequences of proteins named here, by UniProt entry; tags and fusion partners are left off.
UniProt Q0JBA9, entry or part of it: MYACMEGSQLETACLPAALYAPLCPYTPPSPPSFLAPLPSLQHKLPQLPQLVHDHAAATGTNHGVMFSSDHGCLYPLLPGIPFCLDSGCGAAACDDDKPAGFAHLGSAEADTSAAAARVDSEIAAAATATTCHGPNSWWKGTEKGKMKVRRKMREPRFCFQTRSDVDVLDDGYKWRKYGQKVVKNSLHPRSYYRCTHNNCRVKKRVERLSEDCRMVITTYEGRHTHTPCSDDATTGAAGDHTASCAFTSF

The list shows a part of the results.

This test concerns the target OsWRKY34 (Oryza sativa, UniProt Q0JBA9 1-250). As to the kind of experiment: protein-binding microarray (RPBM); PBS, 2% BSA, 51.3 ng/ul salmon testes DNA, 50 uM zinc acetate, 200 nM TF, 25 C, 1 h; high values mean tight binding. To be noted: protein: recombinant; tags: N-terminal polyhistidine and DsRed monomer fusion (pET32a); label: CyDye5-dUTP incorporated in the synthesized complementary strand; 3' TTTTT single-stranded linker to array surface; dsDNA, one strand shown. The procedure, abridged:
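Transcription factors were each fused at the N-terminus to a polyhistidine tag plus DsRed and expressed in E. coli BL21-CodonPlus before Ni–NTA purification. Binding to a double-stranded custom Agilent array was carried out with 200 nM protein at 25 °C for 1 h in PBS, 2% BSA, salmon testes DNA and 50 µM zinc acetate. The binding signal is per-feature fluorescence intensity, in arbitrary units, on an Axon 4000B scanner.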
Regarding “TCTTCCACCATTCAACAGCATTCGTCTTCTCATGCTTGTACGGAGTCACCTAGTGCAG”, the binding signal is 11000 fluorescence intensity (a.u.).
For “TATGTGTGACTATTTTTTTAATTTTTTCATAAATTTTTAGCGGAGTCACCTAGTGCAG” the value was 8440 fluorescence intensity (a.u.).
For “CCTCCGCCGCCGCCTCCGCGCCTCGCCTCGTCTCCTCCTCCGGAGTCACCTAGTGCAG” the value was 8140 fluorescence intensity (a.u.); for “CTCCTCCTTGCCCTGGATCCGTTGTCTACCGACCCAAGAGCGGAGTCACCTAGTGCAG”, 9230 fluorescence intensity (a.u.); for “CAGCCCAGCAAAAAGTCTACCTCTCCTGCCCACGCTACTGCGGAGTCACCTAGTGCAG”, 8140 fluorescence intensity (a.u.).
For “AGCAAAAACACATTTCCAACATTCGGTCTTCACTACTAGCCGGAGTCACCTAGTGCAG” the value was 8380 fluorescence intensity (a.u.); for “CTGAGGCCTCCCTCTGAGTGCATATCGTAGGCAGCTTCCCCGGAGTCACCTAGTGCAG”, 8240 fluorescence intensity (a.u.); for “TCTTTTCATGTTCATGTCCCTACCCTGTTAACCTCTCTATCGGAGTCACCTAGTGCAG”, 9210 fluorescence intensity (a.u.).
Take “TCTTGCATTTCTATTTTTCCTACACATGTTGTCAGAAATGCGGAGTCACCTAGTGCAG”: the binding signal is 11700 fluorescence intensity (a.u.).
“AAACTTCCAACTTTTCCGTCACATCAAACTTTCCTACACACGGAGTCACCTAGTGCAG”: the binding signal was 9580 fluorescence intensity (a.u.).
For “GATGATCTTGGACGTCTGCAGGTTACTTTCGTGAACTATACGGAGTCACCTAGTGCAG” the value was 9320 fluorescence intensity (a.u.).
For “GTCCTTCCAATCATACTACTTTTGTGTCAACCCTTTTACACGGAGTCACCTAGTGCAG” the value was 11400 fluorescence intensity (a.u.); for “AGGTGCATGTTGTTAGTATTTTCGTTGAGTCGGAGAGAATCGGAGTCACCTAGTGCAG”, 8880 fluorescence intensity (a.u.).
For “ACCTTCACGTTCCTCGCCACAACAACACGTACAAAACAAACGGAGTCACCTAGTGCAG”, the binding signal was 9320 fluorescence intensity (a.u.).
As for “CCTTTCGCGCTCATCTTATCCCTCTGGTTTGACATCAGATCGGAGTCACCTAGTGCAG”, the binding signal was 11700 fluorescence intensity (a.u.).
With “GTGAAGTGTGGTTTAAAAATGGTTGCCTGGTCACTTTATCCGGAGTCACCTAGTGCAG”, the binding signal was 9020 fluorescence intensity (a.u.).
In the case of “GCGAGTGAGGAGGGGCGGCGCGCGGTGGCCGGCGGGTGAGCGGAGTCACCTAGTGCAG”, the binding signal is 8070 fluorescence intensity (a.u.).
For “CTGCCGCATGTGCCGTTTGACCGTTGAAAACGCCCTCCCCCGGAGTCACCTAGTGCAG” the value was 8780 fluorescence intensity (a.u.); for “GGATTTTGTTGTTTTAGTGTTTTTCTTTTACAATGATGGTCGGAGTCACCTAGTGCAG”, 8140 fluorescence intensity (a.u.); for “GCAGCTGATCGATCTGGTTTCTGCTTTGCTGCAACTCACTCGGAGTCACCTAGTGCAG”, 8870 fluorescence intensity (a.u.).
“AGATTATTTTGCTCGATTTTGAATTTTTCATGCATCCGTCCGGAGTCACCTAGTGCAG”: the binding signal is 9150 fluorescence intensity (a.u.).
For “CCCACCTCGCCTTTCGATTGCGCGATCACCCACCTTTATACGGAGTCACCTAGTGCAG” the value was 10000 fluorescence intensity (a.u.); for “CCTCGCCGGCCATGGTCGCCCTCCGCTCCGACGTCCTCCACGGAGTCACCTAGTGCAG”, 8070 fluorescence intensity (a.u.).
For “TAAATCCTGAACTTATTTTTGTTTCCTTCGTTTCAGATTACGGAGTCACCTAGTGCAG” the value was 8620 fluorescence intensity (a.u.); for “ACGCATATCGCTTTGCTCTGCTTCGCCTTCGCTTCCGCTTCGGAGTCACCTAGTGCAG”, 8030 fluorescence intensity (a.u.).
For “AAATATGGTGGGCCCCACATGGCTGCGCCTCAAGCTTCTCCGGAGTCACCTAGTGCAG” the value was 9100 fluorescence intensity (a.u.).
“TCTGGTCTCCATCTTTTAGCAATAGTACGCATAATTTATACGGAGTCACCTAGTGCAG”: the binding signal was 8500 fluorescence intensity (a.u.).
For “CACCACCACCACCACACCACGACAGACGGGCCAATCCACCCGGAGTCACCTAGTGCAG” the value was 9350 fluorescence intensity (a.u.); for “ATTATGTCGACACATTTTCTGGGTAATCACAGTCGATTTTCGGAGTCACCTAGTGCAG”, 8300 fluorescence intensity (a.u.); for “CGCTCCGCTCCATTCCATTCCATTCTCTTCTCGCCGCGTACGGAGTCACCTAGTGCAG”, 8790 fluorescence intensity (a.u.).
For “TTCACATTTCGGTCAGCTCGTGTCCCAACAACGTTCAACGCGGAGTCACCTAGTGCAG” the value was 8490 fluorescence intensity (a.u.).
“GAAGAGGAGAGAGGAAGAGAGGTGGAAAGGGGAGGGGAAGCGGAGTCACCTAGTGCAG”: the binding signal is 9460 fluorescence intensity (a.u.).
For “CTTTTCCTGCTTGGTTCGTTACTCCTGTTTAATTATTATTCGGAGTCACCTAGTGCAG” the value was 14600 fluorescence intensity (a.u.); for “GCTCTAGCCATCCGGCCCATCTAGCCCACGTCGCGTGTAACGGAGTCACCTAGTGCAG”, 8280 fluorescence intensity (a.u.).
For the sequence “CCCGCCCAGAGTGTTCGTCCGCGCGTGCATGTCGTTGCATCGGAGTCACCTAGTGCAG”, the binding signal is 10200 fluorescence intensity (a.u.).
For “CTGCTCTATATATATCCACTGTCTTACTTCTATGTGTGTTCGGAGTCACCTAGTGCAG” the value was 11100 fluorescence intensity (a.u.); for “ACCACTCCGGCACGACCACTTCTTGTTTAAATTCCTCACACGGAGTCACCTAGTGCAG”, 11000 fluorescence intensity (a.u.).
As for “ATATTTTGGTAGTTTAGTTTCATTTGGTAGTTTAGTTTCACGGAGTCACCTAGTGCAG”, the binding signal was 8330 fluorescence intensity (a.u.).
For “GGGTGTAATTTTTGTTTTACATGTACGGAATTTTTTACTCCGGAGTCACCTAGTGCAG”, the binding signal is 10800 fluorescence intensity (a.u.).
For “GGGAGGGGTGCGGCGCGGTGGCGCTGGAGCGGAGGAGCGTCGGAGTCACCTAGTGCAG” the value was 9990 fluorescence intensity (a.u.); for “GGTCCTCGTCGCCGTCATTGTCTTGATGTCTAGCTTCTGTCGGAGTCACCTAGTGCAG”, 8940 fluorescence intensity (a.u.); for “TGGTGGTCCAGTTTTTTGTTTGGTTAGGTGGATATGGCCACGGAGTCACCTAGTGCAG”, 8560 fluorescence intensity (a.u.).
